The species entered for this experiment is Cavia porcellus. The experiment is described as follows: Inhibitory effect was measured on guinea pig ileum for maximal contraction. The class given is functional.

Usually IC50 stands for the concentration that inhibits the measured activity by half. A lower IC50 goes with greater potency in that assay. Take `CN1CC[C@]23c4c5ccc(O)c4O[C@H]2[C@@H](O)C=C[C@H]3[C@H]1C5` [MORPHINE]: the IC50 was 140 nM.

The record behind these values is ChEMBL document CHEMBL1125177, “Pseudopeptide analogues of substance P and leucine enkephalinamide containing the psi (CH2O) modification: synthesis and biological activity” (J Med Chem, 1991).
